Assay results reported in PubChem BioAssay AID2551 (National Center for Advancing Translational Sciences (NCATS), 2010).
The whole screen tested about 310,000 compounds, of which about 17,000 (5.5%) were called active. The inconclusive results got no clear call from the source; some entries with a clear call stand among them for comparison. Calls come from the whole dose curve; as a rule, active = well fitted inhibition curve with a large enough effect; inconclusive = small, poorly fitted or top-dose-only effect, or effect the other way; inactive = no such curve, though single readings can be large or run the other way. A potency beside an inconclusive call is a rough fit, not a confirmed value.

By UniProt entry, the sequences of proteins in these tests, tags left out. Where a name states a change or a piece, a line headed by the entry shows the natural chain unless it says otherwise.
UniProt P51450: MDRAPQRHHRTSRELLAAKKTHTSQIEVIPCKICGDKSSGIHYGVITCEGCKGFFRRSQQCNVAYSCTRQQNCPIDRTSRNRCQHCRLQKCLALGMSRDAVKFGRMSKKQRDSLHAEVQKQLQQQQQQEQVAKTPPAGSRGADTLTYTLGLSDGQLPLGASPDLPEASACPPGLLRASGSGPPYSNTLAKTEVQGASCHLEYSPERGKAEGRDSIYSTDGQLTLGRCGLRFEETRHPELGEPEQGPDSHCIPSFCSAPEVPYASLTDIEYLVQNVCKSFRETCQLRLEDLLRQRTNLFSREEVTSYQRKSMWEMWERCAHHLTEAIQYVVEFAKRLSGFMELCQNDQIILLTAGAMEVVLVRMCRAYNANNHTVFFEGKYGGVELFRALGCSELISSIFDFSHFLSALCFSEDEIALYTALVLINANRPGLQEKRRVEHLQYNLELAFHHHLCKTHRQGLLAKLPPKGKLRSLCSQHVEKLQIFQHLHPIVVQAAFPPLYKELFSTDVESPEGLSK

biological target: Nuclear receptor ROR-gamma (Mus musculus) (UniProt P51450); experiment: qHTS for inhibitors of ROR gamma transcriptional activity; details: Drosophila S2 Gal4-RORgamma UAS-luciferase reporter, 20 h; series mostly up to 53.6 µM; note: nearly all actives have a fitted effect of over 60% in size
How it was run: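 Drosophila Schneider cells stably carrying a metallothionein-driven Gal4 DBD–ROR gamma fusion and a UAS-Photinus luciferase reporter were exposed to compound for 1 hr, then induced with copper sulfate (700 uM final) for 20 hr at ambient temperature before luminescence reading.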
Potency is the fitted concentration of half-maximal effect.

SMILES | Potency
c1ccc2c(c1)N1CCCN=C1N2CCN1CCCCC1 | inactive
CC1C=CCC2C(=O)N(c3cc(Cl)ccc3O)C(=O)C12 (centres undefined) | inactive
CCN(CC)S(=O)(=O)c1ccc(OC(C)C)c(NC(=O)c2c3c(nc4ccccc24)CCN(Cc2ccccc2)C3)c1 | inactive
COc1ccc(NS(=O)(=O)c2cc(NC(=O)C3CCCCC3)ccc2N2CCOCC2)cc1 | inconclusive: 5.62 µM [inhibitor, partial curve]
Cc1cccc(/C=N/NC(=O)c2cccc(Cl)c2)n1 | active: 7.08 µM
C=CCOc1ccc(/C=C2\SC(N3CCCCC3)=NC2=O)cc1 | inconclusive: 11.2 µM [activator, partial curve]
O[C@@H]([C@H](O)[C@@H](O)CBr)[C@@H](O)CBr | inactive
COc1ccc(OC)c(C(c2nnnn2Cc2ccccc2)N2CCN(C)CC2)c1 (centres undefined) | inactive
CCn1c(=S)sc2c(=O)n(CC(=O)NC(C)CCc3ccccc3)c(C)nc21 (centres undefined) | inactive
O=C(CSc1nnc(-c2ccco2)n1Cc1ccco1)Nc1ccccc1 | inconclusive: 10 µM [activator, partial curve]
CCOC(=O)CCn1c(=O)c2c(nc(Br)n2Cc2ccccc2)n(C)c1=O | inactive
COC(=O)c1cc(NC(=O)C(C)c2ccc(CC(C)C)cc2)ccc1O (centres undefined) | inconclusive: 11.2 µM [activator, partial curve]
Cc1cc(NC(=O)CSc2nc3ccccc3n2CC(=O)N2CCCCC2)no1 | inconclusive: 35.5 µM [inhibitor, single point]
CC(C)(C)C(=O)NCC12C=CC(O1)C1C(=O)N(c3ccccc3)C(=O)C12 (centres undefined) | inconclusive: 6.31 µM [inhibitor, single point]
Cc1ccc(CNc2oc(C)nc2C#N)cc1 | inactive
COc1cc(NC(=O)Cn2c(-c3cncs3)nc3ccccc32)cc(OC)c1OC | inconclusive: 17.8 µM [inhibitor, single point]
N=C1/C(=C/c2cccs2)C(=O)N=C2SN=C(SCc3ccccc3)N12 | inactive
O=C(CNC(=O)c1cccs1)c1ccc(F)cc1 | inconclusive: 35.5 µM [activator, single point]
CCCOc1ccc(CSc2ncn[nH]2)cc1 | inactive
Cc1ccnc(NC(=O)CSc2cc(=O)n(C)c3ccccc23)c1 | inconclusive: 6.31 µM [inhibitor, single point]
CCCn1c2ccccc2c2nnc(SCC(=O)OC)nc21 | inconclusive: 6.31 µM [inhibitor, single point]
S=c1[nH]nc(COc2ccccc2)n1/N=C/c1c(Cl)cccc1Cl | active: 3.55 µM
O=C(Cc1ccsc1)Nc1ccccc1F | inactive
O=C(c1cc2cc(Cl)ccc2[nH]1)N1CCN(Cc2ccc3c(c2)OCO3)CC1 | inconclusive: 25.1 µM [activator, single point]
CC(=O)C1=C(C)N(Cc2ccccc2)C(=O)N[C@H]1c1cccc(C(F)(F)F)c1 | inconclusive: 8.91 µM [activator, partial curve]

Among those listed so far, twelve contain a carbonyl joined to an NH by a bond outside any ring:
SMILES | Potency
CCN(CC)S(=O)(=O)c1ccc(OC(C)C)c(NC(=O)c2c3c(nc4ccccc24)CCN(Cc2ccccc2)C3)c1 | inactive
COc1ccc(NS(=O)(=O)c2cc(NC(=O)C3CCCCC3)ccc2N2CCOCC2)cc1 | inconclusive: 5.62 µM [inhibitor, partial curve]
Cc1cccc(/C=N/NC(=O)c2cccc(Cl)c2)n1 | active: 7.08 µM
CCn1c(=S)sc2c(=O)n(CC(=O)NC(C)CCc3ccccc3)c(C)nc21 (centres undefined) | inactive
O=C(CSc1nnc(-c2ccco2)n1Cc1ccco1)Nc1ccccc1 | inconclusive: 10 µM [activator, partial curve]
COC(=O)c1cc(NC(=O)C(C)c2ccc(CC(C)C)cc2)ccc1O (centres undefined) | inconclusive: 11.2 µM [activator, partial curve]
Cc1cc(NC(=O)CSc2nc3ccccc3n2CC(=O)N2CCCCC2)no1 | inconclusive: 35.5 µM [inhibitor, single point]
CC(C)(C)C(=O)NCC12C=CC(O1)C1C(=O)N(c3ccccc3)C(=O)C12 (centres undefined) | inconclusive: 6.31 µM [inhibitor, single point]
COc1cc(NC(=O)Cn2c(-c3cncs3)nc3ccccc32)cc(OC)c1OC | inconclusive: 17.8 µM [inhibitor, single point]
O=C(CNC(=O)c1cccs1)c1ccc(F)cc1 | inconclusive: 35.5 µM [activator, single point]
Cc1ccnc(NC(=O)CSc2cc(=O)n(C)c3ccccc23)c1 | inconclusive: 6.31 µM [inhibitor, single point]
O=C(Cc1ccsc1)Nc1ccccc1F | inactive

The list goes on:

SMILES | Potency
N#Cc1ccccc1NC(=S)NC(=O)C1CCC1 | inconclusive: 11.2 µM [inhibitor, single point]
O=C(Nc1ccc2nc(-c3ccccc3)[nH]c2c1)c1ccco1 | inconclusive: 14.1 µM [activator, partial curve]
Cc1ccccc1NC(=S)C1=C(O)c2sccc2N(C)S1(=O)=O | inconclusive: 20 µM [inhibitor, partial curve, poor fit]
Cc1ccc(S(=O)(=O)NC(C)C(c2cccs2)N2CCN(c3ccccc3)CC2)cc1 (centres undefined) | inactive
Cc1nc(NCc2ccccc2)c2nc(-c3ccccc3)n(CCN3CCCCC3)c2n1 | active: 11.2 µM
CC(C)C1Oc2ccccc2N(CC(=O)N(Cc2ccncc2)Cc2ccco2)C1=O (centres undefined) | inconclusive: 6.31 µM [activator, single point]
COc1cc(/C=C2/SC(=S)N(CC(=O)NC(C)(C)C)C2=O)cc(OC)c1OC | inconclusive: 35.5 µM [inhibitor, single point]
Clc1ccc(-c2cc(-c3ccccn3)on2)c(Cl)c1 | active: 3.98 µM
CC(=O)Nc1nc2ccc(Br)cc2s1 | inconclusive: 14.1 µM [activator, partial curve, poor fit]
N#Cc1c(NC(=O)C2CCCO2)sc2c1CCCCCC2 (centres undefined) | inconclusive: 7.94 µM [activator, single point]
COc1ccccc1-c1nnc(NC(=O)c2ccc(S(=O)(=O)N3CCOCC3)cc2)o1 | active: 0.708 µM
Cn1sc(=O)n(Cc2ccccc2)c1=O | active: 3.16 µM
COC1C/C(=N\O)C2OC(c3ccccc3)OCC2O1 (centres undefined) | inactive
COc1cc(/C=c2\s/c(=C\C(=O)C(C)(C)C)[nH]c2=O)cc(OC)c1OC | inconclusive: 35.5 µM [inhibitor, single point]
CCN1CCN(c2ccc(NC(=O)COc3ccc([N+](=O)[O-])cc3)cc2)CC1 | inconclusive: 3.98 µM [activator, single point]
COc1cc(C2C(C(=O)c3cc4ccccc4o3)=C(O)C(=O)N2c2cc(C)on2)cc(OC)c1OC (centres undefined) | inactive
O=C(NC(=S)Nc1ccccc1F)C1CCCCC1 | active: 8.91 µM
COc1ccc(C2NC(=O)C(C#N)=C(S)N2c2ccccc2)cc1OC (centres undefined) | inconclusive: 22.4 µM [inhibitor, single point]
CC1(C)Cc2nc3oc4c(N(CCO)Cc5ccccc5)ncnc4c3cc2CO1 | inactive
c1ccc2[nH]c(CSc3nc4ccccc4o3)nc2c1 | active: 2 µM
CC(C)(CO)NC(=O)c1ccc2c(c1)C(=O)c1ccccc1-2 | inconclusive: 0.708 µM [activator, single point]
CCOc1ccc(-n2c(-c3ccc(Br)cc3)c[n+]3c2CCCCC3)cc1 | inconclusive: 22.4 µM [inhibitor, single point]
CCC(C)NC(=O)c1cc(-c2ccc3c(c2)OCO3)on1 (centres undefined) | inconclusive: 22.4 µM [inhibitor, single point]
CCOc1ccc(C(=O)Nc2cc(OC)ccc2OC)cc1 | inconclusive: 12.6 µM [activator, partial curve]
